Values from PubChem BioAssay AID504804 (Drosophila RNAi Screening Center, 2011)
Aim: 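Knock-downs shielding fly cells from apoptosis caused by DNA damage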 (primary screen). System: Drosophila Kc cells. Knock-down reagent: long dsRNA against Drosophila genes, 0.5 µg dsRNA per well. Timing: 96 h (48 h knock-down, then 48 h drug). Challenge: doxorubicin 5 µg/ml for 48 h, added 48 h after dsRNA. Measurement: 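Luminescent ATP counts per replicate, not normalised, reflecting viable cells after 48 h dsRNA knock-down followed by 48 h of 5 µg/ml doxorubicin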. Scale: raw ATP luminescence: higher = more viable cells, protection from doxorubicin. Hit rule: 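Active when both duplicate wells lie at least 2 SD above the plate mean and protection is confirmed by rescreening and independent dsRNAs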.
The deposit covers about 19,000 reagents; this is a random part of those with a known target gene and a result. Over the whole deposit, 47 (0.25%) got an active call. 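Signals are raw, not normalised; exact z-scores behind calls not deposited; actives needed confirmation, so some wells reaching 2 SD are inactive.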 A plus sign joins genes that one reagent is predicted to hit. No sequences are given here.

gene	amplicon	raw ATP luminescence, replicate 1	raw ATP luminescence, replicate 2	outcome
QC (GeneID 38663)	DRSC09736	39870	37760	inactive
CG5397 (GeneID 33313)	DRSC00683	1.04e5	61873	inactive
Rpn10 (GeneID 40388)	DRSC11876	56083	62963	inactive
CR42546 (GeneID 8674079)	DRSC03711	62763	57477	inactive
CG12517 (GeneID 34506)	DRSC02173	39223	66053	inactive
CG31556 (retired record) (GeneID 318800)	DRSC12122	71963	50900	inactive
MED4 (GeneID 38799)	DRSC11014	40980	36303	inactive
Flo2 (GeneID 32425)	DRSC19062	2.11e5	2.15e5	inactive
Flo2 (GeneID 32425)	DRSC20244	4.12e5	3.48e5	inactive
GstD10 (GeneID 59240)	DRSC15346	58283	49203	inactive
aurA (GeneID 41446)	DRSC16905	56007	55307	inactive
PIG-Q (GeneID 117366)	DRSC19138	1.89e5	2.18e5	inactive
Lk (GeneID 47746)	DRSC10022	55193	46770	inactive
sano (GeneID 37185)	DRSC06165	72977	87430	inactive
CG15345 (retired record) (GeneID 50402)	DRSC18030	45670	53240	inactive
CG7236 (GeneID 33798)	DRSC03037	27720	25640	inactive
CG12898 (GeneID 36096)	DRSC06213	52797	90237	inactive
fz3 (GeneID 31023)	DRSC18779	47540	55690	inactive
Gr22f (GeneID 117349)	DRSC00076	3.21e5	3.33e5	inactive
CG15649 (GeneID 37371)	DRSC04240	61723	58320	inactive
CG15040 (GeneID 32848)	DRSC19616	1.61e5	2.04e5	inactive
mtg (GeneID 40970)	DRSC16256	50220	59213	inactive
PolZ1 (GeneID 47186)	DRSC06800	57887	54190	inactive
CG1924 (GeneID 32180)	DRSC19823	3.94e5	3.73e5	inactive
Ir75c (GeneID 39983)	DRSC10190	94703	63063	inactive
CG12730 (GeneID 31466)	DRSC17885	30420	34880	inactive
foi (GeneID 38976)	DRSC10719	69697	80617	inactive
CG18281 (GeneID 40274)	DRSC11742	22977	25580	inactive
CG16879 (retired record) (GeneID 34827)	DRSC01918	73373	1.12e5	inactive
WASp (GeneID 43402)	DRSC15032	51200	44560	inactive
CG33255 (retired record) + hpRNA:CR32205	DRSC09610	65357	58510	inactive
CG33255 (retired record) + hpRNA:CR32205	DRSC09611	67730	60250	inactive
CG13043 (GeneID 39796)	DRSC09924	38630	28500	inactive
tio (GeneID 44272)	DRSC03739	40933	46633	inactive
AttD (GeneID 42122)	DRSC16272	2.02e5	2.09e5	inactive
Naus (GeneID 37076)	DRSC06011	71003	91360	inactive
CG32249 (GeneID 317939)	DRSC08101	1.57e5	29670	inactive
CG32249 (GeneID 317939)	DRSC08177	73307	77163	inactive
CG12947 (GeneID 41201)	DRSC14575	62737	48213	inactive
BTBD9 (GeneID 32000)	DRSC18148	3.86e5	3.33e5	inactive
mRpS9 (GeneID 40932)	DRSC12645	76813	66503	inactive
mRpS9 (GeneID 40932)	DRSC15456	71063	58757	inactive
CG32647 (GeneID 326226)	DRSC19690	3.02e5	3.14e5	inactive
CG32647 (GeneID 326226)	DRSC19878	2.44e5	3.07e5	inactive
GstE11 (GeneID 37128)	DRSC06926	71610	68020	inactive
Prp18 (GeneID 42285)	DRSC16802	40883	42600	inactive
Jheh3 (GeneID 37182)	DRSC06533	89723	59727	inactive
ZnT63C (GeneID 38407)	DRSC08032	1.41e5	91177	inactive
ZnT63C (GeneID 38407)	DRSC08033	1.51e5	1.29e5	inactive
ZnT63C (GeneID 38407)	DRSC08519	42620	38600	inactive
CG17005 (GeneID 34249)	DRSC02556	38230	65757	inactive
CG14220 (GeneID 32954)	DRSC19577	3.35e5	2.57e5	inactive
Gr98a (GeneID 43305)	DRSC14719	1.94e5	2.15e5	inactive
CG7272 (GeneID 39670)	DRSC10795	60633	43060	inactive
CG13272 (GeneID 35013)	DRSC02249	76053	78467	inactive
erm (GeneID 326152)	DRSC00700	1.07e5	82543	inactive
in (GeneID 40246)	DRSC11888	61283	58813	inactive
CG7857 (GeneID 39671)	DRSC10925	44703	29043	inactive
CG7457 (GeneID 38865)	DRSC10849	79197	84180	inactive
Pi3K68D (GeneID 39329)	DRSC11253	54277	40310	inactive
CG34159 (GeneID 34353)	DRSC02885	19650	20650	inactive
CG15554 (GeneID 43680)	DRSC15092	56830	46630	inactive
CG2816 (GeneID 33595)	DRSC00539	19863	17663	inactive
RSG7 (GeneID 32674)	DRSC20274	3.81e5	3.73e5	inactive
Dgkepsilon (GeneID 36408)	DRSC07399	58620	45507	inactive
betaTry (GeneID 47901)	DRSC07582	2.36e5	1.69e5	inactive
Cpr35B (GeneID 34846)	DRSC01949	64760	88090	inactive
CG10286 (GeneID 40786)	DRSC12520	65623	27703	inactive
Ptpmeg2 (GeneID 31907)	DRSC18277	3.52e5	2.96e5	inactive
Ptpmeg2 (GeneID 31907)	DRSC18278	3.64e5	3.27e5	inactive
CG30034 (retired record) (GeneID 246407)	DRSC05288	82980	89263	inactive
Vta1 (GeneID 38204)	DRSC08604	1.91e5	2.02e5	inactive
CG46491 (GeneID 36929)	DRSC06565	64887	86150	inactive
Keap1 (GeneID 42062)	DRSC15528	35157	40203	inactive
CG10311 (GeneID 41984)	DRSC14228	74000	68820	inactive
ebi (GeneID 33212)	DRSC00816	1.26e5	77590	inactive
CG2310 (GeneID 43473)	DRSC15438	33380	38320	inactive
Mvk + CG33672 + spt4	DRSC05356	1.05e5	1.05e5	inactive
Mvk + CG33672 + spt4	DRSC06628	50540	50010	inactive
CG6652 (GeneID 39905)	DRSC10686	26077	23920	inactive
CG14621 (GeneID 33128)	DRSC20635	3.51e5	3.17e5	inactive
CG12912 (GeneID 36075)	DRSC06227	10743	12323	inactive
CG15891 + CG15892	DRSC18096	39120	46700	inactive
CG14760 (GeneID 35802)	DRSC06495	49027	70293	inactive
fusl (GeneID 33765)	DRSC02351	1.09e5	65377	inactive
CG11368 (GeneID 50397)	DRSC17778	44880	45620	inactive
Fit2 (GeneID 39907)	DRSC10908	28803	25600	inactive
CG11885 (GeneID 33215)	DRSC00329	1.56e5	2.14e5	inactive
Ak1 (GeneID 39396)	DRSC10248	72267	67977	inactive
Phlpp (GeneID 35178)	DRSC02065	65747	72750	inactive
Apl (GeneID 59216)	DRSC10350	86913	59203	inactive
Ir11a (GeneID 32189)	DRSC19699	3.09e5	3.01e5	inactive
ich (GeneID 41069)	DRSC12715	73023	53543	inactive
ich (GeneID 41069)	DRSC14448	68997	79520	inactive
Lip2 (GeneID 43980)	DRSC02577	33697	56740	inactive
Lip2 (GeneID 43980)	DRSC02578	33127	68960	inactive
CG33784 (GeneID 3772181)	DRSC12764	60413	59347	inactive
CG14113 (GeneID 50287)	DRSC10116	89107	72937	inactive
CG34320 (retired record) (GeneID 5740595)	DRSC17682	2.12e5	2.08e5	inactive
Klp67A (GeneID 39068)	DRSC11205	75477	63153	inactive
Atac1 (GeneID 33977)	DRSC03155	22493	26350	inactive
htk (GeneID 32877)	DRSC20029	2.46e5	2.70e5	inactive
CG40583 (retired record) (GeneID 5740259)	DRSC20938	2.18e5	2.31e5	inactive
aus (GeneID 42531)	DRSC13471	1.52e5	1.81e5	inactive
aus (GeneID 42531)	DRSC13473	1.43e5	1.45e5	inactive
aus (GeneID 42531)	DRSC15157	45033	45353	inactive
RpL30 (GeneID 44059)	DRSC02087	42990	49920	inactive

Already shown: 8 of the entries above.
gene	amplicon	raw ATP luminescence, replicate 1	raw ATP luminescence, replicate 2	outcome
CG15649 (GeneID 37371)	DRSC04240	61723	58320	inactive
CG15040 (GeneID 32848)	DRSC19616	1.61e5	2.04e5	inactive
mtg (GeneID 40970)	DRSC16256	50220	59213	inactive
PolZ1 (GeneID 47186)	DRSC06800	57887	54190	inactive
CG1924 (GeneID 32180)	DRSC19823	3.94e5	3.73e5	inactive
Ir75c (GeneID 39983)	DRSC10190	94703	63063	inactive
CG12730 (GeneID 31466)	DRSC17885	30420	34880	inactive
foi (GeneID 38976)	DRSC10719	69697	80617	inactive
